PMC7145576

Tested on: PLE RepA
Experiment: EMSA
Details: 10 mM Mg2+, poly(dI-dC) competitor; EMSA: 80 nM probe, 10 mM HEPES pH 7.8, 10% glycerol, 1 uM TCEP, 10 mM MgCl2, 0.4 ug poly(dI-dC) in 20 ul, 30 C 20 min; 8% acrylamide 0.5x Tris-borate gel; recombinant protein; protein details: N-terminal His6-SUMO, cleaved with SUMO protease

Sequence: TTTATATGGATGATTTTCAACCCTATAAA (double strand) [repeat 3 (R3) probe]
- binding result: binds

The exact form of at least one protein or probe is not confirmed.
